According to paper PMC9446545:
These are yes or no findings as the source states them, for the method shown. For some assays here: In cells and extracts the contact can be indirect. Some entries that bind do so weakly or less than the wild type. For some assays here: Where a sequence is shown, tags or fusion partners need not be part of it. One block for each molecule: values may come before it.

Protein sequences, listed by entry. Tags and fused reporters are not part of them.
UniProt P70288: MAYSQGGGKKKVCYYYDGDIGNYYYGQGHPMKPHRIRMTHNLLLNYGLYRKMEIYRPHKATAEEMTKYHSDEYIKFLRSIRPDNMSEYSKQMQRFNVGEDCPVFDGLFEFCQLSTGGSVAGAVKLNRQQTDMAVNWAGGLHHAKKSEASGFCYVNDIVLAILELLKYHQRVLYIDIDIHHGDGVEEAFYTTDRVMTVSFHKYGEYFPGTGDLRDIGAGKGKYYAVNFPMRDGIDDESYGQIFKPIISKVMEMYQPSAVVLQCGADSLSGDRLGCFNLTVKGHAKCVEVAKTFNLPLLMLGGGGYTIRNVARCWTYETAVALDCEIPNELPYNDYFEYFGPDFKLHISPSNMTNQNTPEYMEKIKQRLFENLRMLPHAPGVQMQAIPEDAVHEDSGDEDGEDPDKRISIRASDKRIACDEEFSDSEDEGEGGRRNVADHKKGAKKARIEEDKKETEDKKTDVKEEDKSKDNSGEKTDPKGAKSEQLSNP
UniProt O09106: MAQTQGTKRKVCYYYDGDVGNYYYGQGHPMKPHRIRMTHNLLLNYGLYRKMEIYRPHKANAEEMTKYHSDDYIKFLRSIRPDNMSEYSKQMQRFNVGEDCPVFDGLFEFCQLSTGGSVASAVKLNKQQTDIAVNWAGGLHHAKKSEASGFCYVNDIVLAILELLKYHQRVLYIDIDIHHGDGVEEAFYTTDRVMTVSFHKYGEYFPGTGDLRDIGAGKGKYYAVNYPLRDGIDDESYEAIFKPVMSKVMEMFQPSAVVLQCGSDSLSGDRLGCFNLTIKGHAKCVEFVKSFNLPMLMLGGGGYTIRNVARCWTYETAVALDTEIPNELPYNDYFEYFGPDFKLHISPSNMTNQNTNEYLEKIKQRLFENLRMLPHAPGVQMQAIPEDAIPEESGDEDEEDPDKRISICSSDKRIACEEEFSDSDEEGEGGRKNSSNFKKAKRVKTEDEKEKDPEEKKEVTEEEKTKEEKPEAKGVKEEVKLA
UniProt Q13547: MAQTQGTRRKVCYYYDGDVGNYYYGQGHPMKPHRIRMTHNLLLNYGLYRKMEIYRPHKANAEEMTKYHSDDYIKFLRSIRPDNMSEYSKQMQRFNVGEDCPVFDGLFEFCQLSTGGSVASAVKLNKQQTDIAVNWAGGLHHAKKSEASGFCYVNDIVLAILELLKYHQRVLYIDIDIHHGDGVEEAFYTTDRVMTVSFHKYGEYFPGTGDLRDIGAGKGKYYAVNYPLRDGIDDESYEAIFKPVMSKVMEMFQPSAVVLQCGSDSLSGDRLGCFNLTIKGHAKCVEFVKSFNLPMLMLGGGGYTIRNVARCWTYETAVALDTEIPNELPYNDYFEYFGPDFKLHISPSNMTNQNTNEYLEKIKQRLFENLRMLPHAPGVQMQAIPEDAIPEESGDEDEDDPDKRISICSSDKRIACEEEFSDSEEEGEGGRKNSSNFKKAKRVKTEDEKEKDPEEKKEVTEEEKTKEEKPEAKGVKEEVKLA
UniProt Q9UBN7: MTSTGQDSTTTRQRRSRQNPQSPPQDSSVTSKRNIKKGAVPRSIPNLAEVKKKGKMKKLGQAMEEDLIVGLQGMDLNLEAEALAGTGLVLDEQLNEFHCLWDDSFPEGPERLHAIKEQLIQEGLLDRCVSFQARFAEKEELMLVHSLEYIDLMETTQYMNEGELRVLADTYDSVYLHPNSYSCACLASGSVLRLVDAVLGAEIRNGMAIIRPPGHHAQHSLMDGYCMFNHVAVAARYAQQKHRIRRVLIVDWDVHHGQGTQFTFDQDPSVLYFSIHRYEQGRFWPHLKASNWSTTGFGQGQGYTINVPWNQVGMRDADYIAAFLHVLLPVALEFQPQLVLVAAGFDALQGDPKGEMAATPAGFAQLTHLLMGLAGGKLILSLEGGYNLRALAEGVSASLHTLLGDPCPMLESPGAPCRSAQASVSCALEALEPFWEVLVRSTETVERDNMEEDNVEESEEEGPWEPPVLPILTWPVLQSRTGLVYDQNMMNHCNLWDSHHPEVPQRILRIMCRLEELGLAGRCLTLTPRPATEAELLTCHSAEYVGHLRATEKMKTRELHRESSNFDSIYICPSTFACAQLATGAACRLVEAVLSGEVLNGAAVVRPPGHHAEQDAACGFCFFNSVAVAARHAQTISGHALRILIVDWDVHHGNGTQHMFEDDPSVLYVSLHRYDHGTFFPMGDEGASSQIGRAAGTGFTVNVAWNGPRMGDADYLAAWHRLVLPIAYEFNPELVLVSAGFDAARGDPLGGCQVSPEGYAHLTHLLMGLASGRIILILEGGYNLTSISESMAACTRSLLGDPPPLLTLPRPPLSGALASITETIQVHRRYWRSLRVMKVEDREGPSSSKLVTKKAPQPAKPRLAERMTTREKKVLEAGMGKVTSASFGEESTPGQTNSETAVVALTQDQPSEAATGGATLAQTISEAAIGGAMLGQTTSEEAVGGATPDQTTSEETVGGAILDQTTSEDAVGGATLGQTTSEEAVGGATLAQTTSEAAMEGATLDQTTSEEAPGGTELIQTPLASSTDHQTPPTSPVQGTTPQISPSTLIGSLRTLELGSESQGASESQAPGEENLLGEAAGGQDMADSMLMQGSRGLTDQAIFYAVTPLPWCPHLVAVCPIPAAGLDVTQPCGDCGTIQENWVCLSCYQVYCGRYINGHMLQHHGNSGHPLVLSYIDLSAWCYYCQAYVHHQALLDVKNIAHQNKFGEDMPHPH
UniProt Q6P5D8: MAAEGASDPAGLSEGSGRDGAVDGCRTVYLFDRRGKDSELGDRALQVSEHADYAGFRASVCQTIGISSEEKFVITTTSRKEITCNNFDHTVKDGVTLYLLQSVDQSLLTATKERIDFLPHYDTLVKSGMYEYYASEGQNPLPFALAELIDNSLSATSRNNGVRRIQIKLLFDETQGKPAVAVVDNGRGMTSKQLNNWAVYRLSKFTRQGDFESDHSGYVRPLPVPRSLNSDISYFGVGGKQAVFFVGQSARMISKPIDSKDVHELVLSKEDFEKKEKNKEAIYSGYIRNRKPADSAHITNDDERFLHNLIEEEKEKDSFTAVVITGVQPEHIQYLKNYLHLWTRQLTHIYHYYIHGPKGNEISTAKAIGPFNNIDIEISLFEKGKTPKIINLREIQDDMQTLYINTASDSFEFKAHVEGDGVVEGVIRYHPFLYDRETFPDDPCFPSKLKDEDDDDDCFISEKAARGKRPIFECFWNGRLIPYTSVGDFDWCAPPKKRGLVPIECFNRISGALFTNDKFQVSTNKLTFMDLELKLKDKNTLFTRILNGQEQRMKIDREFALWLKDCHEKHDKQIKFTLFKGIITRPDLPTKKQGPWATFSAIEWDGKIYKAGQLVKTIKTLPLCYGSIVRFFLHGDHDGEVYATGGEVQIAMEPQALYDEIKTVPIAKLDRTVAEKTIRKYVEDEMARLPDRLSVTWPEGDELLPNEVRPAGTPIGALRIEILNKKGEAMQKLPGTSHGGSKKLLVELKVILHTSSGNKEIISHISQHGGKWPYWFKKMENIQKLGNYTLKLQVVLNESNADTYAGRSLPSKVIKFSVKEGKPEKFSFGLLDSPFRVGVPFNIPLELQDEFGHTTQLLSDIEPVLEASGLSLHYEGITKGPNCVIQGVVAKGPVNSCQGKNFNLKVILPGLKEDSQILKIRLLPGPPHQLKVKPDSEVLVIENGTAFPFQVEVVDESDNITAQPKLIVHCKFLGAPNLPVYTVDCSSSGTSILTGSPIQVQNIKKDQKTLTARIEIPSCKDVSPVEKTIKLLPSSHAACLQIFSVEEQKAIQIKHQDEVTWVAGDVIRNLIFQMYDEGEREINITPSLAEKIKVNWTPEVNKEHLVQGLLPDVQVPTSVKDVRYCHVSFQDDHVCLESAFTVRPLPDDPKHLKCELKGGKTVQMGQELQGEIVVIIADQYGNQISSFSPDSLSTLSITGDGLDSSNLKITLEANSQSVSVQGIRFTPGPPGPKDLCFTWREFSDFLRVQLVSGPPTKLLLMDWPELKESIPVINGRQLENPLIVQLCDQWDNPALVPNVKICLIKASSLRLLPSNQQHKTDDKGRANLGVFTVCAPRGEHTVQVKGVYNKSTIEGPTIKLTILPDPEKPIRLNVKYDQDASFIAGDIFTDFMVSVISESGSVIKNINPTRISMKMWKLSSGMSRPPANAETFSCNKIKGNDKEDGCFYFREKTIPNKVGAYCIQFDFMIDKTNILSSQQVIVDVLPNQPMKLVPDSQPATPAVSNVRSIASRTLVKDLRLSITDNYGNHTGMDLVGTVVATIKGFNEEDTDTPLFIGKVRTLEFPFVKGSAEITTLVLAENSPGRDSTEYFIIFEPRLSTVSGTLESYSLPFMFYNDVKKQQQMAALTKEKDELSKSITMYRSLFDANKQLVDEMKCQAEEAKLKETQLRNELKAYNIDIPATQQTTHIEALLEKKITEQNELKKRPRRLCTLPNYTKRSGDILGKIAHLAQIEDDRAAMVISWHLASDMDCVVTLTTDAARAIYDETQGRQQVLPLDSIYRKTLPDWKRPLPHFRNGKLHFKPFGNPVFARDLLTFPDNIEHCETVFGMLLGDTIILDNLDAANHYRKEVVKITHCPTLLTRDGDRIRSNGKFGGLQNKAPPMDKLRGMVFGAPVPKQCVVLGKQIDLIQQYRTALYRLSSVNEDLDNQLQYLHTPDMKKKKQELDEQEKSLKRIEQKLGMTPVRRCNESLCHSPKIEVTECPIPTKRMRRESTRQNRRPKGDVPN
UniProt Q92769: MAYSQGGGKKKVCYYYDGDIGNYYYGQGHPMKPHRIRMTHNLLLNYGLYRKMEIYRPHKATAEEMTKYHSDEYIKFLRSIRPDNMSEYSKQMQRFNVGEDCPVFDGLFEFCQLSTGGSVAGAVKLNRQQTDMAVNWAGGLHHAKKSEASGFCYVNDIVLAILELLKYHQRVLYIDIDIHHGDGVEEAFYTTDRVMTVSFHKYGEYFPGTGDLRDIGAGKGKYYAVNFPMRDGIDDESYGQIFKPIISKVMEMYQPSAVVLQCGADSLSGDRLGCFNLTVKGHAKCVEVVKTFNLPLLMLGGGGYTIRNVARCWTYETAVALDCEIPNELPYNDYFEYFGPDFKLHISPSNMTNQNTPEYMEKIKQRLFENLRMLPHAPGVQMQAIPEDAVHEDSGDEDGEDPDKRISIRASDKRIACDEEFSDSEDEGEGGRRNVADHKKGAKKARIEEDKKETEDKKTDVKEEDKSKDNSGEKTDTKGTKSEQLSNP

Columns and labels:
[1] = biological target: T1, ZCWPW1-EGFP (mouse Zcwpw1 in pCAG-GFP) (mouse) (UniProt Q6IR42); assay: co-IP; HeLa cells transfected with ZCWPW1-GFP plasmid for 48 h, Pierce IP lysis buffer; IP with GFP antibody, protein A/G beads, immunoblot for HDAC1, HDAC2, HDAC6
T1 sequence: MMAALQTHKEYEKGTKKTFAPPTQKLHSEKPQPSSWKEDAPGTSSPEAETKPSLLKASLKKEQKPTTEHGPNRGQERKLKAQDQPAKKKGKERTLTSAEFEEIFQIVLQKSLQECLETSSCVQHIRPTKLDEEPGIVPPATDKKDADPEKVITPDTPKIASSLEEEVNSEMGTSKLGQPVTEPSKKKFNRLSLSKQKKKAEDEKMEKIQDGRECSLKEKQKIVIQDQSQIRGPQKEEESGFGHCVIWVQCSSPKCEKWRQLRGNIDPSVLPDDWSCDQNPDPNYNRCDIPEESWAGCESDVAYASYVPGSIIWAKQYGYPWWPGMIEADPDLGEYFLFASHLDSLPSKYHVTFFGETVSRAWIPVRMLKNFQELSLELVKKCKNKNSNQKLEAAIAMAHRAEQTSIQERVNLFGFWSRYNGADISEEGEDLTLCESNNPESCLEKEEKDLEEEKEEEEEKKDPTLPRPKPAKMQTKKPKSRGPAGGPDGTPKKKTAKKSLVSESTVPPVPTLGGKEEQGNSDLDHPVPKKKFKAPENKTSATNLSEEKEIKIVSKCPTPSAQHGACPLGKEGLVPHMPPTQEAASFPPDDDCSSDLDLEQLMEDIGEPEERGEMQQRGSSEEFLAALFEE

[2] = biological target: T2, ZCWPW1, full length mouse, in pGBKT7 (two-hybrid bait) (mouse) (UniProt Q6IR42); assay: two-hybrid; Zcwpw1 in pGBKT7 as bait, preys in pGADT7, co-transformed into yeast two-hybrid gold strain; selection on SD/-Leu/-Trp/-His
T2 sequence: T1 sequence

[3] = biological target: T3, ZCWPW1 (endogenous, mouse testes) (mouse (endogenous in mouse testes)) (UniProt Q6IR42); assay: co-IP; PD14-PD16 mouse testes protein extracts (WT; Zcwpw1-/- as control), Pierce IP lysis buffer (25 mM Tris-HCl pH 7.4, 150 mM NaCl, 1 mM EDTA, 1% NP-40, 5% glycerin); IP with anti-ZCWPW1 antibody overnight at 4°C, protein A/G beads, immunoblot
T3 sequence: T1 sequence

[4] = biological target: HDAC2 (endogenous, mouse testes) (mouse (endogenous in mouse testes)) (UniProt P70288); assay: co-IP; mouse testes protein extracts, Pierce IP lysis buffer; IP with an HDAC antibody (anti-HDAC1, anti-HDAC2, anti-HDAC6), protein A/G beads, immunoblot for ZCWPW1
[5] = biological target: T4, HDAC6 (endogenous, mouse testes) (mouse (endogenous in mouse testes)) (UniProt Q9Z2V5); assay: as above
T4 sequence: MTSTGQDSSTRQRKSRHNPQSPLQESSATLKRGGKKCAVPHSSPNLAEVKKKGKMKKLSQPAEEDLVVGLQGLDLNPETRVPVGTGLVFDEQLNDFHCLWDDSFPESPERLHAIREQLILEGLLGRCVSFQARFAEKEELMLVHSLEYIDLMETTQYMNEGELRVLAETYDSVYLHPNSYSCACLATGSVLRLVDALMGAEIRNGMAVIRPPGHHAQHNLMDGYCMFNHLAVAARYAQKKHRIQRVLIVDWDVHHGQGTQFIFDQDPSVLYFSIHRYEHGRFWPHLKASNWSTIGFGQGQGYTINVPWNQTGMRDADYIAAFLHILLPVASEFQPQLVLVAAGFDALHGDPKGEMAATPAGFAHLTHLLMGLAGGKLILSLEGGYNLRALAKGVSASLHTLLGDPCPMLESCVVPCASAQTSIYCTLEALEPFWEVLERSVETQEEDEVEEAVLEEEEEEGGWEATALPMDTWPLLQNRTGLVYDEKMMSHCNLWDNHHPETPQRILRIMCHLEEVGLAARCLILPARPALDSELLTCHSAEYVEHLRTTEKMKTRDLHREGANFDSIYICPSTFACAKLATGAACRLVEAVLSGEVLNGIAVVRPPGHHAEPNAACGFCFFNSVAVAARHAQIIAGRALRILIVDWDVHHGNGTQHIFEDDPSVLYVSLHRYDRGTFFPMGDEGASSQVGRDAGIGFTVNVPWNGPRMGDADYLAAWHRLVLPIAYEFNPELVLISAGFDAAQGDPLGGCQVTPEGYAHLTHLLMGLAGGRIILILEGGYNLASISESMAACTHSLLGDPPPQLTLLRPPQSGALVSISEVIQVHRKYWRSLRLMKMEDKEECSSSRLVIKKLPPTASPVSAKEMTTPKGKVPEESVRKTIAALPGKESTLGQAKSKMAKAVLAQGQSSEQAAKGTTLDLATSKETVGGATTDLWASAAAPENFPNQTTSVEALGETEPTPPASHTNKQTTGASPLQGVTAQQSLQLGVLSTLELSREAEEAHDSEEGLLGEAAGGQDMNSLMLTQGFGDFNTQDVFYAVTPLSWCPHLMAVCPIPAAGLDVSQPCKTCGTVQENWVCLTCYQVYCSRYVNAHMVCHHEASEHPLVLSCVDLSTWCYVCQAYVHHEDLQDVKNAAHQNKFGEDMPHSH

[6] = biological target: HDAC1 (endogenous, mouse testes) (mouse (endogenous in mouse testes)) (UniProt O09106); assay: as above

binding [1]: binds
Molecule: HDAC1 (in HeLa cells) (from UniProt Q13547 1-482) (enzyme)

binding [2]: binds
Molecule: HDAC1, full length mouse, in pGADT7 (two-hybrid prey) (from UniProt O09106 1-482) (enzyme)

binding [1]: binds
Molecule: HDAC6 (in HeLa cells) (from UniProt Q9UBN7 1-1215) (enzyme)

binding [2]: binds
Molecule: SMCHD1, full length mouse, in pGADT7 (two-hybrid prey) (from UniProt Q6P5D8 1-2007)

binding [2]: binds
Molecule: HDAC2, full length mouse, in pGADT7 (two-hybrid prey) (from UniProt P70288 1-488) (enzyme)

binding [3]: binds
Molecule: HDAC2 (endogenous, mouse testes) (from UniProt P70288 1-488) (enzyme)

binding [3]: binds
Molecule: HDAC1 (endogenous, mouse testes) (from UniProt O09106 1-482) (enzyme)

binding [3]: binds
Molecule: SMCHD1 (endogenous, mouse testes) (from UniProt Q6P5D8 1-2007)

binding [1]: binds
Molecule: HDAC2 (in HeLa cells) (from UniProt Q92769 1-488) (enzyme)

binding [2]: binds
B1: HDAC6, full length mouse, in pGADT7 (two-hybrid prey) (enzyme, UniProt Q9Z2V5 1-1149)
chain: T4 sequence

binding [3]: binds
B2: HDAC6 (endogenous, mouse testes) (enzyme, UniProt Q9Z2V5 1-1149)
chain: T4 sequence

binding [4]: binds
binding [5]: binds
binding [6]: binds
B3: ZCWPW1 (endogenous, mouse testes) (protein, UniProt Q6IR42 1-630)
chain: T1 sequence
